Experimental findings from publication PMC5289633 are described below.

By UniProt entry, the sequences of proteins in these tests, tags left out. Residues count along the entry.
UniProt Q62696: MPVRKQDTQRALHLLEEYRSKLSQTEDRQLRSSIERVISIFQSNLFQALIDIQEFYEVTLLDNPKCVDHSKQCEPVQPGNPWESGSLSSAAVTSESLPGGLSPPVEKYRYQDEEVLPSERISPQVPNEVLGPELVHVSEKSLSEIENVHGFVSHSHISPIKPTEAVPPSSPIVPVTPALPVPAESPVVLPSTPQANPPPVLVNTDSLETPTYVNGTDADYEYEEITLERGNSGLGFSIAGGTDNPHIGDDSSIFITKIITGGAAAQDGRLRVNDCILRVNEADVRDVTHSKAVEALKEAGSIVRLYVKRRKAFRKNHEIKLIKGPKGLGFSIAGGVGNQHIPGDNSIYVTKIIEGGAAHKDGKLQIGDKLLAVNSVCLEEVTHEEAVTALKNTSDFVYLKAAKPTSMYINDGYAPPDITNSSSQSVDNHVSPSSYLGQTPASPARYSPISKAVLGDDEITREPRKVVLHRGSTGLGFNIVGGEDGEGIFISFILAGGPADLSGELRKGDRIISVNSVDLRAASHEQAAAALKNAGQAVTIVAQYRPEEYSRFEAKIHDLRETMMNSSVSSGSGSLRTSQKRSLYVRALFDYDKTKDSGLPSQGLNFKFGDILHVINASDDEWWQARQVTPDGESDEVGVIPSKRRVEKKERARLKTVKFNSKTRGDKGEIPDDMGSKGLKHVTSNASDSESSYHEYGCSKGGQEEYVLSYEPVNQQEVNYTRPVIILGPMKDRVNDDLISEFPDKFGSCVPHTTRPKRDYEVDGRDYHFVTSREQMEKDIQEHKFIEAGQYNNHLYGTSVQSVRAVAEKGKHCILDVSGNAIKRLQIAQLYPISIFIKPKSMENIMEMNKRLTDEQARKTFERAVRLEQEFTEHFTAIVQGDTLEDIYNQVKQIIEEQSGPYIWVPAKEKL
UniProt P29475: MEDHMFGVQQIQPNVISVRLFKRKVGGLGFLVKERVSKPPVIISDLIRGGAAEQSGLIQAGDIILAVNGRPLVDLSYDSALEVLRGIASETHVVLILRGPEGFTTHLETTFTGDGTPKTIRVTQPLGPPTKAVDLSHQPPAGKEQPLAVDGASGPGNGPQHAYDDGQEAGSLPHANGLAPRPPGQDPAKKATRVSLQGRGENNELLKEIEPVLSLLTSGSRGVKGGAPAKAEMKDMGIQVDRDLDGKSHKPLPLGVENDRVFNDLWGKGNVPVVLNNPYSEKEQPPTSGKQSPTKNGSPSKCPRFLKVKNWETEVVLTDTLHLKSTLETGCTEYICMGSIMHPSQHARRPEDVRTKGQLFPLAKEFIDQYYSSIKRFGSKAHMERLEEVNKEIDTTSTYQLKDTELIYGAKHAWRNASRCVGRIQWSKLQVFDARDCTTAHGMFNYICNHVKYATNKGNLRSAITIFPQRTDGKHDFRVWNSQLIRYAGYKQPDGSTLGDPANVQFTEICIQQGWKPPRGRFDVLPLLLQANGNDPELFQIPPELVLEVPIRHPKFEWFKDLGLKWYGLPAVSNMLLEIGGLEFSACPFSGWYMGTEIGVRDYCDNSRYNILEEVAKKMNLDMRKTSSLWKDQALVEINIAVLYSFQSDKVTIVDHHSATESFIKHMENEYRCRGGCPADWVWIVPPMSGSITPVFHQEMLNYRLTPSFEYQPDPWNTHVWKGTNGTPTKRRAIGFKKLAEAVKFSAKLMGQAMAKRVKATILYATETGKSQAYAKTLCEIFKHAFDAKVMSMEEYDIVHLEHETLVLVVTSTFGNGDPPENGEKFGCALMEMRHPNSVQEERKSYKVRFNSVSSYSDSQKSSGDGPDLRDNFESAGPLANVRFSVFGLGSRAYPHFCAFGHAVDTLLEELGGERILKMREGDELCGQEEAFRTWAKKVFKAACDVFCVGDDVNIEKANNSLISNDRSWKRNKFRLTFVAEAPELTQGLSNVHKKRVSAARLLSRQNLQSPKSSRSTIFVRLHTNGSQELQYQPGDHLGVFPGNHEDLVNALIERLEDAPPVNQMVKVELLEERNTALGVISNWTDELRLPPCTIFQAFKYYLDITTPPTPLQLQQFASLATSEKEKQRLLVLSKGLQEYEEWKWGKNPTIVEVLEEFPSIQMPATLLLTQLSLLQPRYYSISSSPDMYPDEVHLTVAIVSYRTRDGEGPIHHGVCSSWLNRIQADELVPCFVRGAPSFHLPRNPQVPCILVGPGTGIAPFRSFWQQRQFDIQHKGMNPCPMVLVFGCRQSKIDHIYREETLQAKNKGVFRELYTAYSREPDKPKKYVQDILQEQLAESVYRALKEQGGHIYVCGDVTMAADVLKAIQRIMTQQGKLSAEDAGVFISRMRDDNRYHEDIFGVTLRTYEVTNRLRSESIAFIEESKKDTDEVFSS
UniProt P29476: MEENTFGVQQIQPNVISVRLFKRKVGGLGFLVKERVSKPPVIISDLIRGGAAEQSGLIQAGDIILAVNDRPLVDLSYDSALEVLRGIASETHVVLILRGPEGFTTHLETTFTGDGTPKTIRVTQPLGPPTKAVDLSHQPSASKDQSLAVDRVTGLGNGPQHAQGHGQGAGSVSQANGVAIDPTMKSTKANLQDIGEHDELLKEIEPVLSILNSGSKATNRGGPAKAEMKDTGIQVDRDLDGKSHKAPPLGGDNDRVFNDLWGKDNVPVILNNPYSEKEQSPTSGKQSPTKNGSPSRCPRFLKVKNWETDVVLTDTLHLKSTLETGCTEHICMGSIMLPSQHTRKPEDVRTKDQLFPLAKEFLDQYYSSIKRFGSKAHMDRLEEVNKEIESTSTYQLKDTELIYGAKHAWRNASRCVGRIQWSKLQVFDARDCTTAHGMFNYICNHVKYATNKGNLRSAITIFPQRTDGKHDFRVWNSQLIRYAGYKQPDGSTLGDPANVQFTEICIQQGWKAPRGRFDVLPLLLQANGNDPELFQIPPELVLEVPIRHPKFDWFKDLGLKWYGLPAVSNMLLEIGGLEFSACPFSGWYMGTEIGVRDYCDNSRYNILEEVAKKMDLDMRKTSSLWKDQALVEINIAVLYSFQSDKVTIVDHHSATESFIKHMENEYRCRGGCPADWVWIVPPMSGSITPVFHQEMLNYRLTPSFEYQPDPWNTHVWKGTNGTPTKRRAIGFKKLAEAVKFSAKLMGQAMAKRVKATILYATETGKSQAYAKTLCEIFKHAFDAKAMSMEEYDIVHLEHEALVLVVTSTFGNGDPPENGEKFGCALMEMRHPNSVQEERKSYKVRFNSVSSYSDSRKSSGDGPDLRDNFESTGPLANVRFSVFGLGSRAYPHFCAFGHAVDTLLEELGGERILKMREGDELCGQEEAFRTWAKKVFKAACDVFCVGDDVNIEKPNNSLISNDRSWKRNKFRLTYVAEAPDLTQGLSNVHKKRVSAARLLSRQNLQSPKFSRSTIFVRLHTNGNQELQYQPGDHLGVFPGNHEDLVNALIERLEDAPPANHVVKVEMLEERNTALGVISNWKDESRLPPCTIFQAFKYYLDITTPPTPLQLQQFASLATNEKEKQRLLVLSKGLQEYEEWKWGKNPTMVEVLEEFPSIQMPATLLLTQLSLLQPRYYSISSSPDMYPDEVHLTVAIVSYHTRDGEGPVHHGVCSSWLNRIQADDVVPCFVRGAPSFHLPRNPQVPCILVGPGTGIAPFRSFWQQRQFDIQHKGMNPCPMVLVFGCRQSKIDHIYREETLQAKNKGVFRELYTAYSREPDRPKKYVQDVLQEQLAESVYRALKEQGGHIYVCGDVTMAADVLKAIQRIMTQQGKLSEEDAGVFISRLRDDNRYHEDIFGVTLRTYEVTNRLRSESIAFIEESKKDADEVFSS
UniProt P19490, residues 19-907: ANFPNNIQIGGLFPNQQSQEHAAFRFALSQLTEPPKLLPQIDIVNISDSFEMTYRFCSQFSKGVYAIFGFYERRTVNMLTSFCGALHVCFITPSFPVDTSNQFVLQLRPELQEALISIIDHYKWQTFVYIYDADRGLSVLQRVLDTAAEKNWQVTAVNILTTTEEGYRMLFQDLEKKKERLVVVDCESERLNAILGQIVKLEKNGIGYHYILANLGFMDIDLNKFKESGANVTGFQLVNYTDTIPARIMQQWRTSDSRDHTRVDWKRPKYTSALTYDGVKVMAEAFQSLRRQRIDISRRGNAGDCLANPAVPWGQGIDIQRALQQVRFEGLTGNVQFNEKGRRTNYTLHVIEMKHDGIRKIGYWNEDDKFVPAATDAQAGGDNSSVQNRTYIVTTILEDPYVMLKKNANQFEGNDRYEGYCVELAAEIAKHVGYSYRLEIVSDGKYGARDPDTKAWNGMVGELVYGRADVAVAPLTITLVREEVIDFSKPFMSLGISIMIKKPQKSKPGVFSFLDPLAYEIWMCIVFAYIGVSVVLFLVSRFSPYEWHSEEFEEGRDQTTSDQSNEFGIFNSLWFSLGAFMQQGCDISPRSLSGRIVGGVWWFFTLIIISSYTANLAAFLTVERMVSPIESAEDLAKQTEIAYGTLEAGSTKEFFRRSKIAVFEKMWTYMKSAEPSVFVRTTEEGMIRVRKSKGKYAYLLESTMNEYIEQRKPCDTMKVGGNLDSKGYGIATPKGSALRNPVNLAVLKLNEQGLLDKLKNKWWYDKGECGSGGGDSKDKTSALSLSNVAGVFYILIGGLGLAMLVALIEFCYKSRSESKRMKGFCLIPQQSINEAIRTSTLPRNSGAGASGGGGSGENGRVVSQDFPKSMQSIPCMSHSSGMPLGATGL

Assay [1] deals with SAP97, endogenous in rat cortex (rat (endogenous in P7 cortex)) (UniProt Q62696). As to the kind of experiment: co-IP; detergent extracts (low-salt buffer, 0.5% igepal) of postnatal day 7 rat cerebral cortex; IP with SAP97N antiserum or monoclonal nNOS antibody A-11, protein-A magnetic beads, 4°C; western blot. In general terms: Immunoblotting shows a protein as a band on a membrane.

Assay [2] deals with biotin-tagged nNOS (human) (UniProt P29475). Briefly: pull-down; streptavidin-sepharose pull-down of biotin-tagged nNOS from detergent extracts of HEK293T cells transfected with Bio-nNOS, Flag-GluA1 and myc-SAP97 (also without GluA1), two days after transfection; western blot.
In assay [3] the target is neuronal nitric oxide synthase (nNOS), endogenous in rat cortex (rat (endogenous in P7 cortex)) (UniProt P29476). Briefly: co-IP; detergent extracts (low-salt buffer, 0.5% igepal) of postnatal day 7 rat cerebral cortex; IP with SAP97N antiserum or monoclonal nNOS antibody A-11, protein-A magnetic beads, 4°C; western blot.

No constants are given. Whether binding was seen depends on the method and setting. In cells and extracts the contact can be indirect. Some results given as binding are weak or reduced against the parent protein; the word gives no strength.

Turning to “GluA1, endogenous in rat cortex (from UniProt P19490 19-907) (receptor)”, the binding result in assay [1] is “binds”.

With “N-terminally myc-tagged SAP97 (from UniProt Q62696 1-911)”, the binding entry in assay [2] is “binds”. As for “SAP97, endogenous in rat cortex (from UniProt Q62696 1-911)”, in assay [3], the binding result is listed as “binds”. Take “neuronal nitric oxide synthase (nNOS), endogenous in rat cortex (from UniProt P29476 1-1429) (enzyme)”: the binding entry in assay [1] is “binds”.
